Test results published in paper PMC8022279.
These are yes or no findings as the source states them, for the method shown. Some results given as binding are weak or reduced against the parent protein; the word gives no strength. One block for each binder: values may come before it.

By UniProt entry, the sequences of proteins in these tests, tags left out.
UniProt P33334: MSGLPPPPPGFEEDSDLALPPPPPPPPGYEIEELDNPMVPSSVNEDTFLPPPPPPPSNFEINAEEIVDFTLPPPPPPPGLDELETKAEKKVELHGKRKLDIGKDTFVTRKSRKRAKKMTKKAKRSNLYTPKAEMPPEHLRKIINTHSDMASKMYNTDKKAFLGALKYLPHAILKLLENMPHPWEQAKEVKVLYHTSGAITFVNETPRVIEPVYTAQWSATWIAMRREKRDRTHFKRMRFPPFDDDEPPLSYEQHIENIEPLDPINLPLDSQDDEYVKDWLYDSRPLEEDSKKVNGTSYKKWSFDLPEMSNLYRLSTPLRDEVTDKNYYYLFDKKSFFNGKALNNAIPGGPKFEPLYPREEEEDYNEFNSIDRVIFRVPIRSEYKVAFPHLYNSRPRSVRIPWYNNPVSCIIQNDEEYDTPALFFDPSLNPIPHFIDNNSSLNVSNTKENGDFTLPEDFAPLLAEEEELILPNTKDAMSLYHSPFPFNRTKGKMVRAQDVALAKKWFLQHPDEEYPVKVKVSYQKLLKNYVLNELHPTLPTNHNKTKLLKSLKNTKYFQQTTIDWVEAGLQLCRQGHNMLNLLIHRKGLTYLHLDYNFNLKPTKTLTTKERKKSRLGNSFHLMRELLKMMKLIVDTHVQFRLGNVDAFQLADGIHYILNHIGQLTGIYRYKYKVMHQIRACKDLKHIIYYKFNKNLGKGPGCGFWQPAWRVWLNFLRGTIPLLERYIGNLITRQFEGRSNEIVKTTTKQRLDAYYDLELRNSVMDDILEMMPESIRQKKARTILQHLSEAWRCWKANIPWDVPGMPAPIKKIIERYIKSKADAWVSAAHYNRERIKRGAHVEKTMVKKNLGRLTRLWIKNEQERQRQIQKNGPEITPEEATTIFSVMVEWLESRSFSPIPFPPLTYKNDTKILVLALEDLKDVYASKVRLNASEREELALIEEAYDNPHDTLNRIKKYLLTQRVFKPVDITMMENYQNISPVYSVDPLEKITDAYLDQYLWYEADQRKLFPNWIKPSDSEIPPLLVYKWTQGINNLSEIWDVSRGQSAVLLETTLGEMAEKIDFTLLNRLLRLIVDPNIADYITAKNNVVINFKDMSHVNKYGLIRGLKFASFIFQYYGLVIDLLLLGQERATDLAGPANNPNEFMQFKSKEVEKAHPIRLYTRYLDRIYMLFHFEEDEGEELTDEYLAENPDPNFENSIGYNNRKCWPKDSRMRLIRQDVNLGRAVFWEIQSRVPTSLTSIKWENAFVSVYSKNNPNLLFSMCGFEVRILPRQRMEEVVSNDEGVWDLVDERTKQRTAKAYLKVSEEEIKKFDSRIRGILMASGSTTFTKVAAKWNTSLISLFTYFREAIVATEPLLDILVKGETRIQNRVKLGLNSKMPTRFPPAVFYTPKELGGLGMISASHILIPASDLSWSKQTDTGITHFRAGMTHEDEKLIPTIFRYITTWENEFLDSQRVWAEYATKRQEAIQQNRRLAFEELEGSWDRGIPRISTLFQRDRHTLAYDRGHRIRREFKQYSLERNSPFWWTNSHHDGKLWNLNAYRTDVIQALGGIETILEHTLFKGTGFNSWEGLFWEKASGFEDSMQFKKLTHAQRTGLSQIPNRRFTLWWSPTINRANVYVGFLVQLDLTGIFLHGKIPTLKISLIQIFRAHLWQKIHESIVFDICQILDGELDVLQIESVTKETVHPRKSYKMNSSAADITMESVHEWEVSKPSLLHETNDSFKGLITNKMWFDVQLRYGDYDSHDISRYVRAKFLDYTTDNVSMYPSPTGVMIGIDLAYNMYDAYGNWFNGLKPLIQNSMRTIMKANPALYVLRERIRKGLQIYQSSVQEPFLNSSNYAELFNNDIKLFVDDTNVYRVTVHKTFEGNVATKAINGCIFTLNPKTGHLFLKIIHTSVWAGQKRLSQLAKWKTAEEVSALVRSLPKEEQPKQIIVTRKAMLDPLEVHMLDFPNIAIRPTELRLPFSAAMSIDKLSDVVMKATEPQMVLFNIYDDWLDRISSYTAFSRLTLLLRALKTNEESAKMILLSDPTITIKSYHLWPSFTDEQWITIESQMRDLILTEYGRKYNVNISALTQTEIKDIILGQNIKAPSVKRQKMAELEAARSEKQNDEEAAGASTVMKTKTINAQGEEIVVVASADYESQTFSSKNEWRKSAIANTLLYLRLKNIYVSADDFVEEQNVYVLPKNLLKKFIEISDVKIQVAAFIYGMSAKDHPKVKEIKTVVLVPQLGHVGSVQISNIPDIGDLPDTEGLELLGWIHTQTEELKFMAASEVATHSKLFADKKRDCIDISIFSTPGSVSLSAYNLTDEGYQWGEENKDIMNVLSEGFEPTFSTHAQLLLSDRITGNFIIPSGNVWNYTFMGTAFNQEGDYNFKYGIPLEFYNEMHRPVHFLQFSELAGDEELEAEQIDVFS

Key:
Assay in all cases: cryo-EM structure; endogenous S. cerevisiae C/Ci-complex spliceosomes assembled in splicing extract on UBC4 pre-mRNA and affinity purified (buffer K-75, 75 mM KCl); C-complex particles of 6 datasets merged (C and P particles merged for the Prp19 module); focused classification and focused …
[1] = target: T1, Cwc25 (S. cerevisiae (endogenous in splicing extract)) (UniProt P53854)
T1 sequence: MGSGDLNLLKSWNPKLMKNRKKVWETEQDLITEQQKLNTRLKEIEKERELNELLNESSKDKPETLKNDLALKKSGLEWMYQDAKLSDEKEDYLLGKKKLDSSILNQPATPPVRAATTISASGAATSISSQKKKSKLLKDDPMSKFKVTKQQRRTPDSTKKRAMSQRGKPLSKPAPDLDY

[2] = target: T2, Syf1 (S. cerevisiae (endogenous in splicing extract)) (UniProt Q04048)
T2 sequence: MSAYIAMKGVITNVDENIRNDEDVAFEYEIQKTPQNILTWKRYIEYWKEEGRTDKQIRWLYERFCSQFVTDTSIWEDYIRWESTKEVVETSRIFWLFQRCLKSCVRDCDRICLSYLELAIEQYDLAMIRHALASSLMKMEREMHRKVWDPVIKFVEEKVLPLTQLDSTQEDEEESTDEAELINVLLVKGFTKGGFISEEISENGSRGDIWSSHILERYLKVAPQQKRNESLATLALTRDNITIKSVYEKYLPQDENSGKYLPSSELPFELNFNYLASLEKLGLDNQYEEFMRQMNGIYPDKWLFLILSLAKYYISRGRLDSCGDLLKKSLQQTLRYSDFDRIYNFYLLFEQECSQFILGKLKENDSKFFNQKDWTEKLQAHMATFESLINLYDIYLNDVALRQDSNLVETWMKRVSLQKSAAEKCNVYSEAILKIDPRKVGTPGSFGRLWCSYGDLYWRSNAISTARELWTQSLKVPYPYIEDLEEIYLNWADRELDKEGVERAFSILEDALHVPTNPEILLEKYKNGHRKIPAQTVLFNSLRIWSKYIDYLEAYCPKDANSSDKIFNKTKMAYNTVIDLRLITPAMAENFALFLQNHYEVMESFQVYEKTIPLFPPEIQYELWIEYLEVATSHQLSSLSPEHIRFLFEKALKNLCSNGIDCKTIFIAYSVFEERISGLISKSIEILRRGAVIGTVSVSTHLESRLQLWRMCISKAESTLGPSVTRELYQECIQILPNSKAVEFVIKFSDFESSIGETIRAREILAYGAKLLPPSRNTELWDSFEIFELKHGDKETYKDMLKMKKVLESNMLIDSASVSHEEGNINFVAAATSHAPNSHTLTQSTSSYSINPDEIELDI

[3] = target: T3, Clf1 (S. cerevisiae (endogenous in splicing extract)) (UniProt Q12309)
T3 sequence: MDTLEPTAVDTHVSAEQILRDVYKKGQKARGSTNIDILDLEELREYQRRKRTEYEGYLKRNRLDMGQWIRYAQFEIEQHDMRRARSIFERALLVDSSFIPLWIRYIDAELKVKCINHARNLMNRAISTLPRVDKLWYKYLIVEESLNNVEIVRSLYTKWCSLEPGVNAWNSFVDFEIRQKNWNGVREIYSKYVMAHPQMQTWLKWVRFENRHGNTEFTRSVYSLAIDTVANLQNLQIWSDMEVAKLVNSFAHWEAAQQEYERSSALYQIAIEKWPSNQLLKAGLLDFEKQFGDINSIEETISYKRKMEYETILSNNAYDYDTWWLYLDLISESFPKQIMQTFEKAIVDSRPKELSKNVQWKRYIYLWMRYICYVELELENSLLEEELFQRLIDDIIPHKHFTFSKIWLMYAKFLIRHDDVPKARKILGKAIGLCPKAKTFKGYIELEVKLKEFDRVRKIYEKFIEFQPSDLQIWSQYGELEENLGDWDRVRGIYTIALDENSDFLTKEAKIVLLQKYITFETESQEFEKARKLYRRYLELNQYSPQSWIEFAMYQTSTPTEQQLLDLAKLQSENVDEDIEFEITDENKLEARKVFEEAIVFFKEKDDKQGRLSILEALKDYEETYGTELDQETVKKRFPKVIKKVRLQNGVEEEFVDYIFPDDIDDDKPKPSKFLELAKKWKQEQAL

[4] = target: T4, Lea1 (S. cerevisiae (endogenous in splicing extract)) (UniProt Q08963)
T4 sequence: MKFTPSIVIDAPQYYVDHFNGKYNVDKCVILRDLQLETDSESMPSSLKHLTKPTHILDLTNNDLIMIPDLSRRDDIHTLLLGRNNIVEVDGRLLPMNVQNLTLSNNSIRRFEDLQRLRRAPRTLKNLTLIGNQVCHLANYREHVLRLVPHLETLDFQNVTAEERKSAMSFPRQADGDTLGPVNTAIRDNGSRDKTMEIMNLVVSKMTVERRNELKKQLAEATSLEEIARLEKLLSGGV

[5] = target: Prp8 (S. cerevisiae (endogenous in splicing extract)) (UniProt P33334)
[6] = target: T5, Prp19 (S. cerevisiae (endogenous in splicing extract)), P32523; conditions: remark: other sources report otherwise
T5 chain: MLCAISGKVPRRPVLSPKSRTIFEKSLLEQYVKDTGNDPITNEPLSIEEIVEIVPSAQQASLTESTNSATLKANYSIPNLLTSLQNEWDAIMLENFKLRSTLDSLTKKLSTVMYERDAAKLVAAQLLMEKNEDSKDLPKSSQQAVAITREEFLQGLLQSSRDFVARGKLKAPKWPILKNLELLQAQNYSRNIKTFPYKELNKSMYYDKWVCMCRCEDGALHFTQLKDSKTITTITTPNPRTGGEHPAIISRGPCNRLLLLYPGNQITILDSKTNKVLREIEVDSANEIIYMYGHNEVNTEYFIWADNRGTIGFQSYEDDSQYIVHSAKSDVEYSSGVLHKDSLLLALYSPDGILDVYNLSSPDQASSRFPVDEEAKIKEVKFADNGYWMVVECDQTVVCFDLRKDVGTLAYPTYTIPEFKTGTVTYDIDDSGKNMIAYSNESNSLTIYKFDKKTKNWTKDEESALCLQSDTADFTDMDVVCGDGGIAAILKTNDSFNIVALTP

B2: Ntc20 (protein, UniProt P38302 1-140)
chain: MPSLRDLSLERDQELNQLRARINQLGKTGKEEANDFVGLNISNEPVYDTVIQTGQSSNATNSFVQETIQKTKQKESGQPYIIPQKNEHQRYIDKVCETSDLKAKLAPIMEVLEKKTNEKIKGIIRKRVLQEPDRDNDDSG
binding [2]: binds
binding [3]: binds

B3: Prp45 (protein, UniProt P28004 1-379)
chain: MFSNRLPPPKHSQGRVSTALSSDRVEPAILTDQIAKNVKLDDFIPKRQSNFELSVPLPTKAEIQECTARTKSYIQRLVNAKLANSNNRASSRYVTETHQAPANLLLNNSHHIEVVSKQMDPLLPRFVGKKARKVVAPTENDEVVPVLHMDGSNDRGEADPNEWKIPAAVSNWKNPNGYTVALERRVGKALDNENNTINDGFMKLSEALENADKKARQEIRSKMELKRLAMEQEMLAKESKLKELSQRARYHNGTPQTGAIVKPKKQTSTVARLKELAYSQGRDVSEKIILGAAKRSEQPDLQYDSRFFTRGANASAKRHEDQVYDNPLFVQQDIESIYKTNYEKLDEAVNVKSEGASGSHGPIQFTKAESDDKSDNYGA
binding [3]: binds

B4: Isy1 (protein, UniProt P21374 1-235)
chain: MSRNVDKANSVLVRFQEQQAESAGGYKDYSRYQRPRNVSKVKSIKEANEWKRQVSKEIKQKSTRIYDPSLNEMQIAELNDELNNLFKEWKRWQWHIDHTLMEKKTKRKRLEDSHVLMNSGKLINGKRYFGRALELPEVKEWLKQSQRQNDGGSINTKCIPKDRNDFYYHGKVTAALTEFEANWTSILKAHYNVPVNEDEEEMSRQTQEIHVPTLADMEHWLVQRRKKKLMDELNL
binding [2]: binds
binding [4]: binds

B7: Prp18 (protein, UniProt P33411 1-251)
chain: MDLDLASILKGEISKKKKELANSKGVQPPCTEKFQPHESANIDETPRQVEQESTDEENLSDNQSDDIRTTISKLENRPERIQEAIAQDKTISVIIDPSQIGSTEGKPLLSMKCNLYIHEILSRWKASLEAYHPELFLDTKKALFPLLLQLRRNQLAPDLLISLATVLYHLQQPKEINLAVQSYMKLSIGNVAWPIGVTSVGIHARSAHSKIQGGRNAANIMIDERTRLWITSIKRLITFEEWYTSNHDSLA
binding [5]: binds weakly

B8: Prp19, P32523 1-503 (protein)
chain: T5 chain
binding [6]: binds

Second part, the binder after the results:

binding [1]: binds
binding [2]: binds
B1: Yju2 (protein, UniProt P28320 1-278)
chain: MSERKAINKYYPPDYNPLEAEKLSRKMAKKLKTMNKSHASIRLMTPFSMRCLECNEYIPKSRKFNGKKELLKEKYLDSIKIYRLTISCPRCANSIAFRTDPGNSDYVMEVGGVRNYVPQKPNDDLNAKTAVESIDETLQRLVREKEMEQNEKMGIKEQADDKMDLLEKRLAKIQQEQEDDEELENLRKKNLEMSQRAEMINRSKHAQQEKAVTTDDLDNLVDQVFDNHRQRTNKPGNNNDEKRTPLFNPTSTKGKIQKKSSVRTNPLGIVIKRGKSLK

binding [2]: binds
B5: Syf2 (protein, UniProt P53277 1-215)
chain: MDFYKLDEKLKELKRKRVDVSIKSRKLADREIQEVSANRKPRVYSMEDVNDADESVGDTESPEKEKAFHYTVQEYDAWERRHPQGKTGQSQRGGISYDQLAKLSYEKTLRNLATQTQNSSKQDSSADEEDNKNVPKKGRIGKVQKDTKTGKITIADDDKLVNKLAVSLQSESKKRYEARKRQMQNAKTLYGVESFINDKNKQFNEKLSRESKGSE

binding [3]: binds
B6: Prp46 (protein, UniProt Q12417 1-451)
chain: MDGNDHKVENLGDVDKFYSRIRWNNQFSYMATLPPHLQSEMEGQKSLLMRYDTYRKESSSFSGEGKKVTLQHVPTDFSEASQAVISKKDHDTHASAFVNKIFQPEVAEELIVNRYEKLLSQRPEWHAPWKLSRVINGHLGWVRCVAIDPVDNEWFITGSNDTTMKVWDLATGKLKTTLAGHVMTVRDVAVSDRHPYLFSVSEDKTVKCWDLEKNQIIRDYYGHLSGVRTVSIHPTLDLIATAGRDSVIKLWDMRTRIPVITLVGHKGPINQVQCTPVDPQVVSSSTDATVRLWDVVAGKTMKVLTHHKRSVRATALHPKEFSVASACTDDIRSWGLAEGSLLTNFESEKTGIINTLSINQDDVLFAGGDNGVLSFYDYKSGHKYQSLATREMVGSLEGERSVLCSTFDKTGLRLITGEADKSIKIWKQDETATKESEPGLAWNPNLSAKRF
